The results in this text go back to article PMC5520704.

Protein sequences, listed by entry. Tags and fused reporters are not part of them. Lines headed by an entry give the natural chain unless they say otherwise; changes in a name come on top.
UniProt P06396: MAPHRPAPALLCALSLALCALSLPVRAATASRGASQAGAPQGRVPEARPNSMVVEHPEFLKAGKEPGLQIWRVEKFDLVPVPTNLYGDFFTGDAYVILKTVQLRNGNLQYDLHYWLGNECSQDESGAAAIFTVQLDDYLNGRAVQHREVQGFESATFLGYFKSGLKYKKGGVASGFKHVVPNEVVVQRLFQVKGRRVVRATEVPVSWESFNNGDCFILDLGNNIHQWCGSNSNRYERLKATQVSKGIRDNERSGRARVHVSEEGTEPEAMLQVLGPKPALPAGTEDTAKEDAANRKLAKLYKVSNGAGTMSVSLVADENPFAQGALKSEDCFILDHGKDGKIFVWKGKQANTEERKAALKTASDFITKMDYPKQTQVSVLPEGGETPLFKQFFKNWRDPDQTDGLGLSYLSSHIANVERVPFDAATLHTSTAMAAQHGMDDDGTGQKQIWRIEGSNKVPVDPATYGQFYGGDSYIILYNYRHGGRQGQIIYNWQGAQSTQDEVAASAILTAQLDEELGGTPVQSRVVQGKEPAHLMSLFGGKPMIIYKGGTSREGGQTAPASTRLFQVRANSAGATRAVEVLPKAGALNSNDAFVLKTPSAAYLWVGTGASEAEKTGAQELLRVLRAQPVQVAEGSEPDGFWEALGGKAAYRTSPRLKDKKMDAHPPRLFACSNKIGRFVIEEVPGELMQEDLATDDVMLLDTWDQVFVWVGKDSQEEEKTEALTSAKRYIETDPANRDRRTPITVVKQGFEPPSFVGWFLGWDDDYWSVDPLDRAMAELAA

The target of this assay is T1, BASP1 that contains a C-terminal HA tag (UniProt P80723).
T1 sequence: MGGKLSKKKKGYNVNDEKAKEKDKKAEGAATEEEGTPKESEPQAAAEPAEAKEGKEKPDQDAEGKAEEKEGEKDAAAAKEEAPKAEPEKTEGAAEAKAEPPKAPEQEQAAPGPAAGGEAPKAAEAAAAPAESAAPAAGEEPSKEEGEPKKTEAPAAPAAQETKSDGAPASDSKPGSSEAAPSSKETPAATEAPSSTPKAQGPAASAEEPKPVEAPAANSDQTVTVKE
Put plainly: affinity purification with mass spectrometry; anti-HA immunoprecipitation from nuclear extracts of B-K562 (BASP1-HA) and V-K562 (empty pcDNA3) cells; Orbitrap mass spectrometry of the immunoprecipitates.

Results are given in words; binding and its absence hold for the method and conditions named. Binding seen in cells or lysates may run through a third protein. Here binding means that the protein was enriched with, or labelled near, the bait; the list need not be complete. Tags and fused reporters may be left off the sequences shown.

Take gelsolin (from UniProt P06396): the binding entry is given as “binds”.
